## Results of single-concentration screens

Measurements from “University of Dundee, Small-Polar-MMV Screening Library” (2021), ChEMBL document CHEMBL3988442.

Values are the deposited “Percent Effect”, in %. The record does not define 0% and 100%; most values in the screen are far below 50% and negative numbers occur (in some assays of this library far below -100). This is an unselected part of the compounds tested. Two or more numbers in one place are separate tests of the same structure; such repeats can differ widely. A dash means the value is not listed here; it may have been measured.

T. brucei: 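Whole-parasite assay of Trypanosoma brucei over 72 hours; the read-out is not stated. Compounds at 30 µM. The record gives no direction; compounds that gave an IC50 in retests scored well above the rest, so higher reads as stronger inhibition. Values scatter widely below zero; nearly all retest evidence comes from the higher of the two concentrations used. Of about 64,000 compounds tested this way, about 940 (1.5%) reached 50% or more in at least one test.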
Leishmania in macrophages: 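Cell assay of Leishmania donovani living inside macrophages; the read-out is not stated. Concentration: 30 µM. The record gives no direction; compounds that gave an IC50 in retests scored well above the rest, so higher reads as stronger inhibition. About 69,000 compounds were tested under these conditions; 1.5% (about 1,000) showed 50% or more at least once.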

| # | structure | T. brucei | Leishmania in macrophages |
|---|---|---|---|
| 1 | `CN(C1CCCCC1)S(=O)(=O)NC1CCN(c2ncccn2)CC1` | -4.574 | 20.11 |
| 2 | `CC(C)(C)c1n[nH]c(C2CN(C(=O)CCCn3cccn3)CCO2)n1` (stereo not shown) | - | 37.69 |
| 3 | `Cc1nc(Nc2nncs2)cc(C2CCCN2C)n1` (stereo not shown) | -36.12 | 3.386 |
| 4 | `COc1ccc(-c2ccc(C(=O)NS(C)(=O)=O)c(F)c2)cc1` | 8.636 | 3.978 |
| 5 | `O=C(CCc1nc(C2CC2)no1)c1ccc(F)c(F)c1` | -19.02 | -18.05 |
| 6 | `Cc1ccc2cc(C(=O)N3CCS(=O)(=O)CC3)[nH]c2c1` | -2.7 | -2.34 |
| 7 | `COCC(=O)N1CC[C@@H](OCC2CC2)[C@@H]1Cc1cccnc1.O=C(O)C(F)(F)F` | 31.72 | 16.29 |
| 8 | `Cc1ccc2oc(CN3CCC(C(=O)O)(n4ccnc4)CC3)c(C)c2c1` | -11.59 | 21.21 |
| 9 | `CCNC(=O)c1cn2cc(-c3ccccc3Cl)n(CC3CC3)c(=O)c2n1` | -15.12 | -9.992 |
| 10 | `O=C(Nc1ccccc1)N1CCn2c(nnc2C2CCCN2)C1` (stereo not shown) | - | 2.043 |
| 11 | `c1ccc(-c2cnn3cc(CN4CCC5(CCO5)CC4)cnc23)cc1` | 4.398 | 34.4 |
| 12 | `CC(NC(=O)NCCCN(C)C)c1ccc2c(c1)CCC(=O)N2` (stereo not shown) | 34.13 | 28.45 |
| 13 | `Cc1nc2ccc(CN3CC4(CCOC4)CCC3=O)cc2[nH]1` (stereo not shown) | 5.433 | 14.1 |
| 14 | `CC1CN(C(=O)CN(Cc2ccco2)C2CC2)CCO1` (stereo not shown) | -9.331 | -4.39 |
| 15 | `CC(C)(C)OC(=O)N1CCN(c2nnc(Br)s2)CC1` | - | -1.136 |
| 16 | `O=C(O)c1ccnc(SCC(F)(F)F)c1` | -16.72 | 7.609 |
| 17 | `Cc1nccc(N2C[C@@H](CN3CCCC3)[C@@H](CO)C2)n1` | -3.66 | 1.704 |
| 18 | `CS(=O)(=O)c1ccc(C(O)CN2CCC(c3ccn[nH]3)CC2)cc1` (stereo not shown) | -31.51 | 31.8 |
| 19 | `C=C(C)CN1CCCC(CNS(C)(=O)=O)C1` (stereo not shown) | -0.2825 | 1.489 |
| 20 | `CO[C@H]1CN(Cc2ccc(F)cc2)CC[C@@]12CCCO2` | -33.13 | 27.39 and 2.208 |
| 21 | `COc1cc2c(cc1OC)S(=O)(=O)N(Cc1cccc(C)c1)C2=O` | 0.7102 | 13.84 |
| 22 | `Cc1nc(C)n(CC2CCCN(CCOc3ccc(C#N)cc3)C2)n1` (stereo not shown) | - | -2.088 |
| 23 | `O=C(O)c1cc2c(nc1O)CC(c1cccc(Cl)c1)CC2=O` (stereo not shown) | -42 | -28.43 |
| 24 | `O=C(O)c1cc(/C=C/c2ccc3ccccc3c2)ncn1` | 17.56 | 9.935 |
| 25 | `CCn1c(Cn2cncn2)nnc1C1CCN(C(=O)CCSC)CC1` | 15.12 | 0.4039 |
| 26 | `CCc1nc(CC2CN(c3ncnc4nc(C)cc(C)c34)CCO2)no1` (stereo not shown) | -3.648 | -26.03 |
| 27 | `Cc1nc(C)n(C2CCCN(C(=O)c3cc4ccccc4n3C)C2)n1` (stereo not shown) | -2.678 | 35.86 |
| 28 | `CN1CCC/C1=N\S(=O)(=O)c1ccc(NC(=O)c2ccc(Cl)cc2)cc1` | - | 15.32 |
| 29 | `COc1cccc(C(=O)N2CCOC3(CCCN(C(C)=O)C3)C2)c1` (stereo not shown) | -52.4 | 39.88 |
| 30 | `COc1cc(N2CC3(CCN(S(=O)(=O)C4CC4)C3)C2)ncn1` | -57.84 | 11.17 and 13.28 |
| 31 | `O=C(O)C(F)(F)F.[H][C@@]12CN(Cc3nccs3)C[C@]1([H])CN(C(N)=O)C2` | - | -14.2 |
| 32 | `CC(C)C1=NOC(c2nc(-c3cccc(Cl)c3)no2)C1` (stereo not shown) | 16.04 | 25 |
| 33 | `COCCn1cnnc1CN(C)c1nc(N)ncc1C` | -22.18 | 33.99 |
| 34 | `CN(C)CC(=O)N1Cc2nnn(C)c2C(COCC2CC2)C1` (stereo not shown) | -48.33 | 47.59 |
| 35 | `Cl.O=C1N(Cc2cccc(Cl)c2)CCC12CCCNC2` (stereo not shown) | -1.64 | 9.285 |
| 36 | `CS(=O)(=O)N1CCC(Nc2ccc(C#N)c(C(F)(F)F)c2)CC1` | -1.842 | 19.38 |
| 37 | `Cc1nnc2n1CCN(C(=O)c1cc(Cl)c(Br)[nH]1)C2` | - | 6.843 |
| 38 | `O=C(Nc1cnc2n1CCCC2)c1cccc(NC(=O)C2CCCC2)c1` | -32.6 | 4.194 |
| 39 | `CCNC(=O)c1ccoc1CN1c2ccccc2CC1C` (stereo not shown) | -72.26 | 8.808 |
| 40 | `Cc1ccc(NC(=O)[C@H]2C[C@H](C(=O)O)CN(CC(C)C)C2)cn1` | -22.57 | 1.762 |
| 41 | `CC(O)CN1CCC(CNCc2cccc(C(=O)N(C)C)c2)CC1` (stereo not shown) | -20.96 | 15.32 |
| 42 | `CCOc1cccc(CNC(=O)N2CCC(Cc3cnn(C)c3)C2)c1` (stereo not shown) | - | 16.55 |
| 43 | `O=C(NC1CCCN(c2ccccc2Cl)C1)c1c[nH]nn1` (stereo not shown) | -19.17 | -35.15 |
| 44 | `CCN1CCN(C)C(=O)C12CCN(Cc1ccsc1)CC2.O=C(O)C(F)(F)F` | -26.05 | 10.16 |
| 45 | `C=C(C)COc1cccc(C(=O)N(CC)Cc2nc(COC)no2)c1` | -26.53 | 4.881 |
| 46 | `N#Cc1ccc(OC2CCN(C(=O)Cc3cccs3)CC2)nc1` | 43.55 | -3.941 |
| 47 | `Cc1nn(C)c(N(C)C)c1CNCCCN(C(C)C)S(C)(=O)=O` | 4.31 | 14.41 |
| 48 | `Cc1nc(C2CCCN2C(=O)CCOCc2ccccc2)no1` (stereo not shown) | -18.85 | -3.441 |
| 49 | `CCC(CC)C(=O)N(C)CC(=O)Nc1ccc(Br)cn1` | 11.04 | 29.24 |
| 50 | `CCc1nnc2n1CCN(CC(=O)Nc1sccc1C#N)C2` | -19.68 | 1.957 |
| 51 | `COc1cccc(-c2noc(C3CCN(Cc4ccc(C)cc4)C3)n2)c1.Cl` (stereo not shown) | 4.598 | -10.86 and -14.15 |
| 52 | `Cc1nc(O)cc(C2CCN(C(=O)CN(C)c3ccccc3)CC2)n1` | -4.94 | -2.886 |
| 53 | `CS(=O)(=O)c1cn[nH]c1C1CCCN1C(=O)c1cccnc1` (stereo not shown) | -23.36 | -3.912 and 5.723 |
| 54 | `O=C(O)C(F)(F)F.[H][C@]12CCN(C(=O)c3ccncc3F)[C@@]1([H])CCC(COCC1CC1)O2` (stereo partly shown) | -23.9 | -1.92 |
| 55 | `Cc1cc(C)c(C(=O)N2CCN(c3ncccc3C#N)CC2)c(=O)[nH]1` | -21.46 | -2.947 |
| 56 | `COCCNC(=O)c1nnc2ccc(N3CCOCC3)cc2n1` | -23.41 | -29.01 |
| 57 | `CCN(C(=O)COC)C(c1cccnc1)c1ccc2c(c1)CCO2` (stereo not shown) | -59.36 | -19.57 |
| 58 | `FC1(F)CCNCC12CCN(c1cccnc1)C2.O=C(O)C(F)(F)F.O=C(O)C(F)(F)F` (stereo not shown) | - | 9.392 |
| 59 | `Cn1cncc1-c1nnc([C@H]2CCN(Cc3ccc(CO)o3)C2)o1` | -61.6 | -5.248 |
| 60 | `Cc1cc(NC(=O)NC(C)CO)ccc1OCC(F)(F)F` (stereo not shown) | -10.06 | -0.1099 |
| 61 | `CCNc1cc2c(nn1)CCN(C(=O)c1ccc3cc[nH]c3c1)C2` | 18.78 | 18.46 |
| 62 | `Clc1ccc2cccnc2c1CN1CCCC1Cn1cncn1` (stereo not shown) | 3.447 | 19.01 |
| 63 | `CN1CC(=O)c2sc(NCCc3ccccc3)nc2C1` | -20.53 | -10.78 and 4.119 |
| 64 | `N#CCc1cccc(C(=O)N2CCN(CC(O)c3ccccc3)CC2)c1` (stereo not shown) | 6.868 | 24.48 |
| 65 | `O=C(NCCCn1nc2ccccn2c1=O)Nc1ccccc1Cl` | 5.001 | -8.146 |

Some entries from above, unchanged:

{"structure": "Cc1cc(NC(=O)NC(C)CO)ccc1OCC(F)(F)F", "stereo": "stereo not shown", "T. brucei": -10.06, "Leishmania in macrophages": -0.1099}
{"structure": "N#Cc1ccc(OC2CCN(C(=O)Cc3cccs3)CC2)nc1", "T. brucei": 43.55, "Leishmania in macrophages": -3.941}
{"structure": "O=C(NCCCn1nc2ccccn2c1=O)Nc1ccccc1Cl", "T. brucei": 5.001, "Leishmania in macrophages": -8.146}
{"structure": "COc1ccc(-c2ccc(C(=O)NS(C)(=O)=O)c(F)c2)cc1", "T. brucei": 8.636, "Leishmania in macrophages": 3.978}
{"structure": "O=C(O)C(F)(F)F.[H][C@]12CCN(C(=O)c3ccncc3F)[C@@]1([H])CCC(COCC1CC1)O2", "stereo": "stereo partly shown", "T. brucei": -23.9, "Leishmania in macrophages": -1.92}
{"structure": "CN(C)CC(=O)N1Cc2nnn(C)c2C(COCC2CC2)C1", "stereo": "stereo not shown", "T. brucei": -48.33, "Leishmania in macrophages": 47.59}